Values quoted from earlier work in patent US20140335210A1, “METHOD AND AGROCHEMICAL COMPOSITION FOR USING LARCH WOOD EXTRACTS IN AGRICULTURE” (FLAVITPURE, INC., priority 2013, published 2014).
At least one compound was matched to its structure with a doubt left.

Tested on: polar transport of indol-3yl-acetic acid
Conditions: 4-6 h; stimulation of basipetal, inhibition of acropetal transport; cited from earlier work

C[C@@H]1O[C@@H](Oc2c(-c3ccc(O)c(O)c3)oc3cc(O)cc(O)c3c2=O)[C@H](O)[C@H](O)[C@H]1O [quercitrin]
polarity of the transport of indol-3yl-acetic acid: increased
